Source: PubChem BioAssay AID493014 (National Center for Advancing Translational Sciences (NCATS), 2011)
The list shows a part of the results. Further columns of the screen follow, without active or inactive calls. Compounds called inactive in the main read-out are mostly missing here. The note in brackets gives the kind of curve behind each potency; many fits are weak.

Assay: qHTS Assay to Find Inhibitors of Chronic Active B-Cell Receptor Signaling
Conditions: ABC-DLBCL IkBa-CBG/CBR reporter, luminescence ratio (green luciferase fused to IkBa over red control in TMD8 lymphoma cells), 4 h
Method in brief: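 Concentration-response series (up to 46 uM) were applied to TMD8 dual-reporter cells for 4 h at 37C with doxycycline. Green/red ratio, after filter-overlap correction, defined %Activity; red signal alone was normalised to basal cells and zero luminescence.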

[1] = measured here: IkBa-CBG green luminescence
[2] = measured here: CBR red luminescence, cell number

Row | SMILES | AC50 [1] | AC50 [2]
1 | Cc1cc(C)cc(NC(=O)C(=O)NCC2CCCN2S(=O)(=O)c2cccs2)c1 (centres undefined) | 10.3 µM [falling, partial curve, poor fit] | 
2 | COc1ccccc1C(=O)COC(=O)CNS(=O)(=O)c1ccc(NC(C)=O)cc1 |  | 35.5 µM [rising, single point]
3 | O=C(NCCc1ccccc1)NC1CCCCC1 |  | 13 µM [falling, partial curve]
4 | CCCN1C(=O)CN(C2CCCCC2)C(=O)C1c1ccc(OC)c(OC)c1 (centres undefined) |  | 0.0891 µM [rising, full curve, poor fit]
5 | CC(=O)N/N=C\c1ccccc1OC/C=C/c1ccccc1 |  | 35.5 µM [rising, single point]
6 | Cc1nn(C)c(Cl)c1CN1CCCC(CO)(Cc2cccc(Cl)c2)C1 (centres undefined) |  | 35.5 µM [falling, single point]
7 | C=C1SC(=Nc2ccccc2Cl)N(C(=O)c2sc3ccccc3c2Cl)C12CCCCC2 |  | 5.62 µM [rising, single point]
8 | CCOC(=O)CSc1nc(COc2ccccc2)nc2ccccc12 |  | 35.5 µM [falling, partial curve, poor fit]
9 | COc1ccc(/C=N\Nc2ccccc2[N+](=O)[O-])c(C(=O)O)c1OC |  | 0.631 µM [rising, full curve]
10 | COc1cc2c(cc1OC)C1=C(C#N)CC/C(=N\S(=O)(=O)c3ccccc3)N1CC2 |  | 3.98 µM [rising, partial curve, poor fit]
11 | O=C(Nc1ccc(N2CCCC2)cc1)c1cccc(F)c1 | 4.61 µM [rising, partial curve, poor fit] | 0.517 µM [falling, partial curve, poor fit]
12 | Cc1csc(NC(=O)CSc2nc3ccccc3c(=O)[nH]2)n1 |  | 1.03 µM [falling, full curve, poor fit]
13 | Cc1occc1C(=O)Nc1ccccc1C(=O)O |  | 10 µM [falling, partial curve, poor fit]
14 | O=C(Nc1ccccc1C(=O)O)c1cncc(Br)c1 |  | 1.3 µM [falling, full curve]
15 | N#C/C(=C/c1ccc(F)cc1)c1nnc(NC(=O)c2ccccc2)s1 |  | 0.112 µM [rising, full curve, poor fit]
16 | O=c1[nH]c(CN2CCC(c3nc4ccccc4s3)CC2)nc2sc3c(c12)CCC3 |  | 31.6 µM [rising, single point]
17 | CCOC(=O)C1=NNC2(CC(=O)N(c3cc(C)cc(C)c3)C2=O)C1 (centres undefined) |  | 3.55 µM [rising, single point]
18 | NC1=NC(=Nc2ccc(Br)cc2)c2ccccc21 |  | 25.9 µM [falling, single point]
19 | O=c1oc([C@@H](O)c2ccccc2)cc2ccccc12 |  | 0.0461 µM [rising, full curve, poor fit]
20 | Cc1cc(Cl)cc(Cl)c1OCCOCCN(C)C |  | 6.51 µM [rising, single point]
21 | O=C(NC1=NCCS1)C1COc2ccccc2O1 (centres undefined) |  | 11.2 µM [falling, single point]

Row | SMILES | AC50 [1] | AC50 [2]
22 | O=C(Cn1ncc(Cl)c(Cl)c1=O)NCC1CCCCC1 |  | 4.61 µM [falling, full curve]
23 | O=S(=O)(c1ccc(F)cc1)n1ccc(-c2cnc(-c3ccccc3)s2)n1 |  | 2.51 µM [rising, full curve, poor fit]
24 | O=c1c(-c2cnn(-c3ccccc3)c2)coc2cc(O)ccc12 |  | 5.01 µM [falling, partial curve]
25 | O=C(COc1ccccc1)NNc1c2ccccc2nc2ccccc12 |  | 22.4 µM [falling, single point]
26 | COC(=O)C1=C(C)N=c2s/c(=C/c3cccs3)c(=O)n2C1c1ccc(F)cc1 (centres undefined) |  | 0.651 µM [falling, full curve]
27 | CCCCCCOc1ccc(OCC(O)CN2C(=O)NC(C)(C)C2=O)cc1 (centres undefined) |  | 29.1 µM [rising, single point]
28 | COc1ccc(S(=O)(=O)Nc2ccc(S(=O)(=O)N3CCCCC3)cc2)cc1C |  | 35.5 µM [falling, single point]
29 | O=C(NCc1ccccc1)c1cc2ccccc2o1 |  | 20.6 µM [falling, partial curve]
30 | COc1ccc(OC)c2sc(N(Cc3cccnc3)C(=O)c3ccc(C(C)=O)cc3)nc12 |  | 25.1 µM [falling, single point]
31 | CCC(C)NS(=O)(=O)c1ccc(OC)c(Cl)c1Cl (centres undefined) |  | 1.84 µM [rising, partial curve, poor fit]
32 | O=C(Nc1ccc2nn(-c3ccccc3)nc2c1)c1ccc2c(c1)OCO2 |  | 2.31 µM [falling, partial curve, poor fit]
33 | CN(CC(=O)O)Cc1nc2ccccc2[nH]1 |  | 6.51 µM [rising, partial curve, poor fit]
34 | Cn1c(=O)c2[nH]c(-c3cccnc3)nc2n(C)c1=O | 1 µM [rising, partial curve, poor fit] | 0.316 µM [falling, full curve, poor fit]
35 | c1ccc(CNc2nnnn2-c2ccccc2)cc1 |  | 6.51 µM [rising, single point]
36 | CC(C)C(=O)Nc1ccc(Nc2ccccc2)cc1 |  | 3.66 µM [rising, partial curve]
37 | O=c1c2c(-c3ccccc3)csc2ncn1/N=C/c1ccc(O)c([N+](=O)[O-])c1 |  | 1.26 µM [falling, full curve, poor fit]
38 | COc1ccc(OC)c(C(=O)/C=C/c2cccnc2)c1 |  | 5.01 µM [falling, partial curve]
39 | O=C(N/N=C/C(Cl)=C\c1ccccc1)c1cccs1 |  | 35.5 µM [falling, single point]
40 | O=C1c2ccccc2C(=O)N1CCCc1nc2ccccc2c(=O)n1-c1cccnc1 |  | 12.6 µM [rising, partial curve, poor fit]
41 | COc1cc(CN2CCN(S(=O)(=O)c3ccc(NC(C)=O)cc3)CC2)cc(OC)c1O |  | 15.8 µM [rising, single point]
42 | O=C(O)c1ccc(CNC(=O)c2ccccc2NC(=O)c2ccc([N+](=O)[O-])cc2)cc1 |  | 17.8 µM [falling, partial curve, poor fit]

Of the compounds above, these contain a cyano group:
Row | SMILES | AC50 [1] | AC50 [2]
10 | COc1cc2c(cc1OC)C1=C(C#N)CC/C(=N\S(=O)(=O)c3ccccc3)N1CC2 |  | 3.98 µM [rising, partial curve, poor fit]
15 | N#C/C(=C/c1ccc(F)cc1)c1nnc(NC(=O)c2ccccc2)s1 |  | 0.112 µM [rising, full curve, poor fit]
